In PubChem BioAssay AID588591 (National Center for Advancing Translational Sciences (NCATS), 2011):
In all, about 390,000 compounds went through this assay and about 4,700 (1.2%) were called active. All entries are inconclusive by the source's own rule. Clear calls are listed elsewhere. Calls come from the whole dose curve; as a rule, active = well fitted inhibition curve with a large enough effect; inconclusive = small, poorly fitted or top-dose-only effect, or another doubt; inactive = no such curve, though single readings can be large or run the other way. Some structures show a salt or complex split into parts, the way the source records it.

By UniProt entry, the sequences of proteins in these tests, tags left out.
UniProt Q9Y253, whole entry: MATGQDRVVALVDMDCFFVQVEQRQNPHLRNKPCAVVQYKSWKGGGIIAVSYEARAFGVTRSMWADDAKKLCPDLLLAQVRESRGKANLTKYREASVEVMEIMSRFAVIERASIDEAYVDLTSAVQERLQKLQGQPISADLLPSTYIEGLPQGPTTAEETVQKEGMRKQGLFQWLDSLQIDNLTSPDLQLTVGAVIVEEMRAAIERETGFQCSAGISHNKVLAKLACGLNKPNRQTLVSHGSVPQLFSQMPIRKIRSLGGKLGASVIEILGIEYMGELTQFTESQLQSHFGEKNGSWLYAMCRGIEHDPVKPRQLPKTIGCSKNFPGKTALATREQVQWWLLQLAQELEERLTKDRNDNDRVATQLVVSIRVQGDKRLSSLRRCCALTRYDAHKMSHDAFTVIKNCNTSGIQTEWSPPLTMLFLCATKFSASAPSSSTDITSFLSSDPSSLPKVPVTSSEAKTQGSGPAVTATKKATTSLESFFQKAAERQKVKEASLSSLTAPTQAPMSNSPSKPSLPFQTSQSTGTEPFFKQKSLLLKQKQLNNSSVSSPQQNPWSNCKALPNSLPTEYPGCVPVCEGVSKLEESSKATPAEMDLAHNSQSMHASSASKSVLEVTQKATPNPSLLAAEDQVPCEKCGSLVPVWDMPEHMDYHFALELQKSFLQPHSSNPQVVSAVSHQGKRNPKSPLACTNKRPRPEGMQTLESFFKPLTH

Biological target: DNA polymerase eta (Homo sapiens) (UniProt Q9Y253)
Assay: qHTS for Inhibitors of Polymerase Eta
Conditions: recombinant Pol eta, fluorescent DNA replication assay
Potency is the fitted concentration of half-maximal effect.

| SMILES | Potency |
| --- | --- |
| CC(C)(C)OC(=O)N1CCC(N(C(=O)c2ccccc2)c2ccc(Cl)cc2)CC1 | inconclusive: 50.1 µM |
| COc1ccc2c(c1O)-c1c(O)c(OC)cc3c1[C@H](C2)[N+](C)(C)CC3.O=[N+]([O-])c1cc([N+](=O)[O-])c([O-])c([N+](=O)[O-])c1[O-] | inconclusive: 31.6 µM |
| CC(C)c1ccc(NC2CCN(C(=O)OC(C)(C)C)CC2)cc1 | inconclusive: 79.4 µM |
| O=C(OC1CN2CCC1CC2)C1c2ccccc2Oc2ccccc21 (centres undefined) | inconclusive: 11.2 µM |
